Measured data: PubChem BioAssay AID1259254 (NCATS, 2017)
Purpose: 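Finding genes that stop cells copying their DNA twice in one cycle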 (primary screen). Cell system: human HCT116 colorectal cancer cells. Knock-down reagent: single siRNA against human genes. Time to read-out: 3 days. Read-out: 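Imaged Hoechst DNA stain sorts each cell into a cycle phase by DNA amount; per plate, G2 fraction set to 0% for non-targeting and 100% for GMNN siRNA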. Direction: G2 robust z-score and G2 cells, % of GMNN control: higher = more G2 cells, more excess DNA replication; raw share of cells in G2: higher = larger share of cells with G2 DNA content. Hit rule: 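Active siRNAs have a G2 robust z of 5 or more median absolute deviations over the median, which in these data means about 38% or higher of GMNN control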.
The whole screen tested about 59,000 reagents; below is a random part of them. In the full data, about 1,550 (2.6%) were called active. 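G2 share is only a proxy for re-replication; each gene was hit by three separate siRNAs, and active genes were retested.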 Raw values vary from plate to plate and are shown uncorrected. The numbers tell different reagents against one gene apart. Not stated in the record: the amount of reagent.

target gene | siRNA no. | G2 robust z-score | G2 cells, % of GMNN control | raw share of cells in G2 (%) | Outcome
TRPC3 | 1 | -0.554 | -0.927 | 4.95 | inactive
TRPC3 | 2 | 0.528 | 6.68 | 7.04 | inactive
TRPC3 | 3 | 0.308 | 5.13 | 6.38 | inactive
RPL28 (ribosomal protein L28) | 1 | -0.676 | -1.79 | 4.21 | inactive
RPL28 (ribosomal protein L28) | 2 | 9.93 | 72.8 | 33 | active
RPL28 (ribosomal protein L28) | 3 | 3.48 | 27.4 | 13.3 | inactive
TMPRSS11B (transmembrane serine protease 11B) | 1 | 0.0297 | 3.18 | 6.94 | inactive
TMPRSS11B (transmembrane serine protease 11B) | 2 | 2.17 | 18.3 | 10.5 | inactive
TMPRSS11B (transmembrane serine protease 11B) | 3 | -0.62 | -1.4 | 3.74 | inactive
KPNA3 (karyopherin subunit alpha 3) | 1 | -0.0496 | 2.62 | 6 | inactive
KPNA3 (karyopherin subunit alpha 3) | 2 | 2.39 | 19.8 | 13.2 | inactive
KPNA3 (karyopherin subunit alpha 3) | 3 | -0.385 | 0.258 | 4.3 | inactive
ISX (intestine specific homeobox) | 1 | 2.69 | 21.9 | 12.8 | inactive
ISX (intestine specific homeobox) | 2 | 4.93 | 37.7 | 21.1 | inactive
ISX (intestine specific homeobox) | 3 | -0.389 | 0.231 | 5.78 | inactive
KREMEN1 (kringle containing transmembrane protein 1) | 1 | -0.386 | 0.25 | 5.53 | inactive
KREMEN1 (kringle containing transmembrane protein 1) | 2 | -0.598 | -1.24 | 3.74 | inactive
KREMEN1 (kringle containing transmembrane protein 1) | 3 | 2.66 | 21.7 | 12.8 | inactive
CKS1B (CDC28 protein kinase regulatory subunit 1B) | 1 | -0.0628 | 2.53 | 4.97 | inactive
CKS1B (CDC28 protein kinase regulatory subunit 1B) | 2 | 2.56 | 21 | 12.5 | inactive
CKS1B (CDC28 protein kinase regulatory subunit 1B) | 3 | 0.156 | 4.07 | 6.48 | inactive
SEC14L2 (SEC14 like lipid binding 2) | 1 | 2.88 | 23.2 | 11.9 | inactive
SEC14L2 (SEC14 like lipid binding 2) | 2 | -0.569 | -1.04 | 3.51 | inactive
SEC14L2 (SEC14 like lipid binding 2) | 3 | -0.207 | 1.51 | 6.97 | inactive
ZMYM5 (zinc finger MYM-type containing 5) | 1 | -0.845 | -2.98 | 3.81 | inactive
ZMYM5 (zinc finger MYM-type containing 5) | 2 | -0.246 | 1.23 | 4.38 | inactive
ZMYM5 (zinc finger MYM-type containing 5) | 3 | -0.811 | -2.74 | 2.38 | inactive
DLX5 (distal-less homeobox 5) | 1 | 0.803 | 8.61 | 8.04 | inactive
DLX5 (distal-less homeobox 5) | 2 | 6.81 | 50.9 | 23.6 | active
DLX5 (distal-less homeobox 5) | 3 | -0.202 | 1.55 | 4.63 | inactive
CASK (calcium/calmodulin dependent serine protein kinase) | 1 | 0.792 | 8.54 | 8.25 | inactive
CASK (calcium/calmodulin dependent serine protein kinase) | 2 | -0.326 | 0.672 | 5.44 | inactive
CASK (calcium/calmodulin dependent serine protein kinase) | 3 | 0.425 | 5.96 | 5.59 | inactive
ROS1 (ROS proto-oncogene 1, receptor tyrosine kinase) | 1 | -1.54 | -7.88 | 3.01 | inactive
ROS1 (ROS proto-oncogene 1, receptor tyrosine kinase) | 2 | 1.41 | 12.9 | 9.76 | inactive
ROS1 (ROS proto-oncogene 1, receptor tyrosine kinase) | 3 | -1.09 | -4.69 | 2.37 | inactive
CA8 (carbonic anhydrase 8 (inactive)) | 1 | 7.07 | 52.7 | 22.7 | active
CA8 (carbonic anhydrase 8 (inactive)) | 2 | -0.624 | -1.42 | 4.57 | inactive
CA8 (carbonic anhydrase 8 (inactive)) | 3 | 0.585 | 7.08 | 6.63 | inactive
CEBPB (CCAAT enhancer binding protein beta) | 1 | 1.86 | 16 | 10.7 | inactive
CEBPB (CCAAT enhancer binding protein beta) | 2 | -1.61 | -8.37 | 1.94 | inactive
CEBPB (CCAAT enhancer binding protein beta) | 3 | 1.26 | 11.9 | 8.18 | inactive
ZXDC (ZXD family zinc finger C) | 1 | 3.7 | 29 | 13 | inactive
ZXDC (ZXD family zinc finger C) | 2 | -0.563 | -0.995 | 5.46 | inactive
ZXDC (ZXD family zinc finger C) | 3 | 0.805 | 8.63 | 6.34 | inactive
FXYD1 (FXYD domain containing ion transport regulator 1) | 1 | 1.64 | 14.5 | 10.6 | inactive
FXYD1 (FXYD domain containing ion transport regulator 1) | 2 | -1.36 | -6.62 | 2.54 | inactive
FXYD1 (FXYD domain containing ion transport regulator 1) | 3 | -0.495 | -0.513 | 4.18 | inactive
